The data set in a line: self-splicing fitness, log relative to wild type (ln ratio); higher = more splicing; Tetrahymena group I intron in knt gene, E. coli kanamycin selection, DiMSum; sequences stand for … in CUCUCU…GGAGGGAAAAGUUAUCAGGCAUGCACCUGGUAGCUAGUCUUUAAACCAAUAGAUUGCAUCGGUUUAAAAGGCAAGACCGUCAAAUUGCGGGAAAGGGGUCAACAGCCGUUCAGUACCAAGUCUCAGGGGAAACUUUGAGAUGGCCUUGCAAAGGGUAUGGUAAUAAGCUGACGGACAUGGUCCUAACCACGCAGCCAAGUCCUAAGUCAACAGAUCUUCUGUUGAUAUGGAUGCAGUUCACAGACUAAAUGUCGGUCGGGGAAGAUGUAUUCUUCUCAUAAGAUAUAGUCGGACCUCUCCUUAAUGGGAGCUAGCGGAUGAAGUGAUGCAACACUGGAGCCGCUGGGAACUAAUUUGUAUGCGAAAGUAUAUUGAUUAGUUUUGGAGUACUCGUGGUCG
In a few lines: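 Six replicate transformations of E. coli BL21(DE3) with a pET-22b(+) library were grown overnight at 37°C or 30°C. The library randomised all eight P1ex-region intron nucleotides, the intron lying in the knt kanamycin-resistance gene, and plates were LB agar with or without 25 μg/mL kanamycin plus 100 μg/mL carbenicillin, 50 μM IPTG and 0.2% rhamnose. Pooled colonies were amplicon-sequenced on an Illumina HiSeq 2500, and fitness is the DiMSum error-weighted combination of wild-type-normalised replicate fold changes, kanamycin versus none.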

± gives the uncertainty stated by the source. Many entries were measured with a wide error.

On to UUUGAGCAAUAUUACGUUAG, for which, under “30 °C”, the “self-splicing fitness (ln)” value is -3.12 ± 1.1.

Turning to AUUAAGCAAUAUUACGGCCG, the “self-splicing fitness (ln)” value (30 °C) was -0.768 ± 0.12 and the “self-splicing fitness (ln)” value (37 °C) was found to be 0.0891 ± 0.15.

Regarding UCGAAGCAAUAUUACGAUCC, the “self-splicing fitness (ln)” value (30 °C) was -3.63 ± 1 and the “self-splicing fitness (ln)” value (37 °C) is -1.39 ± 1.2.

As for ACUGAGCAAUAUUACGGAUC, the “self-splicing fitness (ln)” value (30 °C) is -4.37 ± 1.

On to GUGGAGCAAUAUUACGAUGG, for which the “self-splicing fitness (ln)” value (30 °C) is -4.99 ± 0.71.

As to GAAGAGCAAUAUUACGAAUA, the “self-splicing fitness (ln)” value (30 °C) was -3.78 ± 0.59.

Consider CUUGAGCAAUAUUACGGCUA, for which the “self-splicing fitness (ln)” value (30 °C) is -1.75 ± 0.76.

Turning to GCCGAGCAAUAUUACGAACA, the “self-splicing fitness (ln)” value (37 °C) is -1.59 ± 0.61.

With AGGGAGCAAUAUUACGUAUA, the “self-splicing fitness (ln)” value (37 °C) was -1.48 ± 0.51.

For GGCUAGCAAUAUUACGUCAG, the “self-splicing fitness (ln)” value (37 °C) is -1.39 ± 1.2.

In the case of UGUGAGCAAUAUUACGCUGC, under “37 °C”, the “self-splicing fitness (ln)” value was -1.83 ± 0.66.

With UAAGAGCAAUAUUACGCACU, under “37 °C”, the “self-splicing fitness (ln)” value is -2.18 ± 1.1.

As for CAUCAGCAAUAUUACGGCCC, the “self-splicing fitness (ln)” value is -2.18 ± 0.54 (30 °C) and -1.37 ± 1.2 (37 °C).

For the sequence CAAUAGCAAUAUUACGACCA, the “self-splicing fitness (ln)” value (30 °C) is -2.36 ± 0.78.

On to AUCCAGCAAUAUUACGUUAC, for which the “self-splicing fitness (ln)” value (30 °C) was -3.89 ± 0.24 and the “self-splicing fitness (ln)” value (37 °C) is -2.59 ± 0.22.

Turning to CGAGAGCAAUAUUACGCCCA, where the note is “30 °C”, the “self-splicing fitness (ln)” value is -1.56 ± 1.2.

Regarding AUGGAGCAAUAUUACGGCGA, under “30 °C”, the “self-splicing fitness (ln)” value was -3.21 ± 0.74.

Consider CGUGAGCAAUAUUACGAGGC, for which the “self-splicing fitness (ln)” value (37 °C) was -1.33 ± 1.2.

For UGGGAGCAAUAUUACGCUUC, the “self-splicing fitness (ln)” value (37 °C) is -2.02 ± 0.57.

Take UAGGAGCAAUAUUACGUAUA: the “self-splicing fitness (ln)” value runs as follows: (30 °C) -2.34 ± 0.21; (37 °C) -0.936 ± 0.17.

On to CCAGAGCAAUAUUACGACCC, for which the “self-splicing fitness (ln)” value is, setting by setting: (30 °C) -4.5 ± 1; (37 °C) -1.1 ± 0.65.

On to CGUUAGCAAUAUUACGUGAC, for which the “self-splicing fitness (ln)” value is, setting by setting: (30 °C) -3.39 ± 0.79; (37 °C) -1.13 ± 1.2.

Take GGUUAGCAAUAUUACGCGGC: the “self-splicing fitness (ln)” value (37 °C) was -2.4 ± 0.64.

In the case of GGCUAGCAAUAUUACGCGAC, the “self-splicing fitness (ln)” value (37 °C) is -0.372 ± 0.68.

As for UGCCAGCAAUAUUACGUCGG, the “self-splicing fitness (ln)” value by setting is: (30 °C) -4.72 ± 0.41; (37 °C) -2.68 ± 0.25.

As for CAAGAGCAAUAUUACGGAGC, the “self-splicing fitness (ln)” value (30 °C) was -4.31 ± 1.

GUUUAGCAAUAUUACGCUAU: the “self-splicing fitness (ln)” value (30 °C) was -2.2 ± 0.51.

In the case of UCUCAGCAAUAUUACGGCCU, the “self-splicing fitness (ln)” value (30 °C) is -2.44 ± 0.78.

Regarding GGGAAGCAAUAUUACGACCC, under “30 °C”, the “self-splicing fitness (ln)” value is -3.88 ± 1.1.

Take AUUAAGCAAUAUUACGACGU: the “self-splicing fitness (ln)” value runs as follows: (30 °C) 0.564 ± 0.087; (37 °C) 0.495 ± 0.093.

For the sequence CAUUAGCAAUAUUACGAGAA, the “self-splicing fitness (ln)” value by setting is: (30 °C) -2.62 ± 1.1; (37 °C) -1.53 ± 0.52.

In the case of CCGGAGCAAUAUUACGCAAA, the “self-splicing fitness (ln)” value (30 °C) is -2.73 ± 0.62.

In the case of GCGGAGCAAUAUUACGCUCU, the “self-splicing fitness (ln)” value runs as follows: (30 °C) -4.66 ± 1; (37 °C) -1.98 ± 0.52.

For the sequence UGGGAGCAAUAUUACGGCCG, where the note is “30 °C”, the “self-splicing fitness (ln)” value was -2.82 ± 0.57.

Consider AGUGAGCAAUAUUACGCAUU, for which the “self-splicing fitness (ln)” value was -2.55 ± 0.21 (30 °C) and -1.4 ± 0.19 (37 °C).

As for AUGGAGCAAUAUUACGCCUC, the “self-splicing fitness (ln)” value (37 °C) was -1.21 ± 0.68.

Take AAAGAGCAAUAUUACGACGA: the “self-splicing fitness (ln)” value was -2.27 ± 0.23 (30 °C) and -2.57 ± 0.25 (37 °C).

As for GUCGAGCAAUAUUACGCGCG, the “self-splicing fitness (ln)” value runs as follows: (30 °C) -2.33 ± 0.78; (37 °C) -1.38 ± 0.73.

On to UAUCAGCAAUAUUACGGAAC, for which the “self-splicing fitness (ln)” value (37 °C) is -0.398 ± 0.57.

Take GGAGAGCAAUAUUACGGAGA: the “self-splicing fitness (ln)” value (37 °C) was -2.09 ± 0.51.

As for GGCAAGCAAUAUUACGCCCA, the “self-splicing fitness (ln)” value (30 °C) was -1.95 ± 0.15 and the “self-splicing fitness (ln)” value (37 °C) is -0.268 ± 0.12.

On to GUAGAGCAAUAUUACGAAAG, for which, where the note is “37 °C”, the “self-splicing fitness (ln)” value was -1.51 ± 0.59.

On to UCUGAGCAAUAUUACGGGCU, for which the “self-splicing fitness (ln)” value (30 °C) is -4.42 ± 0.51.

For the sequence GCUAAGCAAUAUUACGCUCC, the “self-splicing fitness (ln)” value runs as follows: (30 °C) -1.01 ± 0.13; (37 °C) -1.07 ± 0.18.

Consider CGUUAGCAAUAUUACGGGAU, for which the “self-splicing fitness (ln)” value (30 °C) was -4.45 ± 0.51.

Take GCAUAGCAAUAUUACGGUGC: the “self-splicing fitness (ln)” value (37 °C) was -2.95 ± 0.74.

Consider CAACAGCAAUAUUACGUCUA, for which the “self-splicing fitness (ln)” value is -1.06 ± 0.053 (30 °C) and -0.786 ± 0.055 (37 °C).

Take CUAAAGCAAUAUUACGAAGC: the “self-splicing fitness (ln)” value (30 °C) is -4.76 ± 0.59.

For the sequence GCGCAGCAAUAUUACGGAGU, the “self-splicing fitness (ln)” value is -2 ± 0.11 (30 °C) and -0.744 ± 0.13 (37 °C).

Take AGGGAGCAAUAUUACGCCUU: the “self-splicing fitness (ln)” value (37 °C) was -2.9 ± 0.53.

These data come from the supplement of paper PMC7877785.
